Values quoted from earlier work, collected in patent US11179379B2, “Compositions and methods for hemoglobin production” (THE CHILDREN'S HOSPITAL OF PHILADELPHIA, priority 2017, dated 2021).
At least one compound was matched to its structure with a doubt left.

Test system: eIF2αK1
Details: literature reports; cited from earlier work

| SMILES | inhibition of eIF2αK1 activity |
| --- | --- |
| C=CC1=C(C)/C(=C/c2[nH]c(Cc3[nH]c(/C=C4\NC(=O)C(C)=C4C=C)c(C)c3CCC(=O)O)c(CCC(=O)O)c2C)NC1=O [bilirubin] | inhibit eIF2αK1 activity |
| C=CC1=C(C)c2cc3[nH]c(cc4nc(cc5[nH]c(cc1n2)c(C)c5CCC(=O)O)C(CCC(=O)O)=C4C)c(C)c3C=C [protoporphyrin IX] | inhibit eIF2αK1 activity |
